Source: US8227621B2, “Cyanine dyes and methods of use” (priority 2005, dated 2012)
For at least one compound, name, drawing or mass did not settle the structure.

Target: T1, HIV-1 protease (Human immunodeficiency virus type 1 group M subtype B, UniProt P04585)
T1 construct: Recombinant HIV-1 protease; purchased BACHEM Biosciences
Experiment: Effect of DMSO and compound interferences on the HIV-1 protease assay
Assay type: biochemical
Settings: up to 10 μM fluorescein, 37° C. 1 hour
Experimental: To measure the tolerance of the HIV-1 protease assay to the presence of dimethyl sulfoxide (DMSO), 1 μM of substrate was incubated with 80 nM, 40 nM, 20 nM, 10 nM, 5 nM and 2.5 nM of HIV-1 protease in an assay buffer containing 10%, 5%, 2.5% or 0% DMSO. After incubation at 37° C. for 1.5 hours, the plate was treated with 0.8 M sodium phosphate stop buffer and then scanned on Aerius® System (LI-COR® Biosciences).
The robustness of the protease assay was evaluated against fluorescent, color quenching and light scattering interferences, which are the three major sources of compound interferences in high-throughput fluorescent assay screening. In these experiments, protease activity of the HIV-protease assay of the invention was measured in the presence of various amounts of the interference source and compared to that in the absence of the interference.
Fluorescein, a highly fluorescent compound, was chosen as the model fluorescent compound interference source. A series of fluorescein concentrations were mixed with the HIV-1 peptide substrate in the assay buffer system. These wells were then treated either with the enzyme (positive wells) or without the enzyme (negative wells) and incubated at 37° C. for 1 hour.

For `O=C1OC2(c3ccc(O)cc3Oc3cc(O)ccc32)c2ccccc21` [fluorescein, reference compound], the “inhibitory effect on enzyme activity” value was “did not have any inhibitory effect”.
